# Record: PubChem BioAssay AID1259254 (NCATS, 2017)
# Screen: 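Gene knock-downs that lead to re-replication, shown by excess G2 DNA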 (primary screen)
# Cells: human HCT116 colorectal cancer cells
# Reagent: single siRNA against human genes
# Timing: 3 days
# Read-out: 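Nuclei stained with Hoechst and imaged; cell-cycle phase assigned by DNA content; G2 share scaled per plate, non-targeting siRNA 0%, GMNN siRNA 100%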
# Direction: G2 robust z-score: higher = more G2 cells, more excess DNA replication
# Call rule: 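Active siRNAs have a G2 robust z of 5 or more median absolute deviations over the median, which in these data means about 38% or higher of GMNN control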
# The whole screen tested about 59,000 reagents; shown is a random part of them. Over the whole deposit, about 1,550 (2.6%) got an active call. 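G2 share is only a proxy for re-replication; each gene was hit by three separate siRNAs, and active genes were retested.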 Reagents against one gene are numbered here. Further read-outs or replicates are left out here. Not stated in the record: the amount of reagent.
target,reagent,G2 robust z-score,Outcome
SRP14 (signal recognition particle 14),1,2.66,inactive
SRP14 (signal recognition particle 14),2,0.281,inactive
SRP14 (signal recognition particle 14),3,0.0666,inactive
P2RY1 (purinergic receptor P2Y1),1,6.98,active
P2RY1 (purinergic receptor P2Y1),2,-0.0825,inactive
P2RY1 (purinergic receptor P2Y1),3,1.19,inactive
ATP6V1E1 (ATPase H+ transporting V1 subunit E1),1,-0.347,inactive
ATP6V1E1 (ATPase H+ transporting V1 subunit E1),2,0.616,inactive
ATP6V1E1 (ATPase H+ transporting V1 subunit E1),3,-0.503,inactive
NDFIP2 (Nedd4 family interacting protein 2),1,1.49,inactive
NDFIP2 (Nedd4 family interacting protein 2),2,0.379,inactive
NDFIP2 (Nedd4 family interacting protein 2),3,-0.379,inactive
ZNF12 (zinc finger protein 12),1,-0.55,inactive
ZNF12 (zinc finger protein 12),2,-1.09,inactive
ZNF12 (zinc finger protein 12),3,1.99,inactive
CFAP20DC (CFAP20 domain containing),1,0.167,inactive
CFAP20DC (CFAP20 domain containing),2,-0.726,inactive
CFAP20DC (CFAP20 domain containing),3,0.353,inactive
ATP6V1E2 (ATPase H+ transporting V1 subunit E2),1,0.371,inactive
ATP6V1E2 (ATPase H+ transporting V1 subunit E2),2,0.904,inactive
ATP6V1E2 (ATPase H+ transporting V1 subunit E2),3,-1.27,inactive
RPS28P7 (ribosomal protein S28 pseudogene 7),1,6.68,active
RPS28P7 (ribosomal protein S28 pseudogene 7),2,2.46,inactive
RPS28P7 (ribosomal protein S28 pseudogene 7),3,1.86,inactive
TBP (TATA-box binding protein),1,-0.59,inactive
TBP (TATA-box binding protein),2,-0.695,inactive
TBP (TATA-box binding protein),3,-0.82,inactive
FAM110B (family with sequence similarity 110 member B),1,0.184,inactive
FAM110B (family with sequence similarity 110 member B),2,-0.298,inactive
FAM110B (family with sequence similarity 110 member B),3,1.45,inactive
SET (SET nuclear proto-oncogene),1,1.03,inactive
SET (SET nuclear proto-oncogene),2,-0.766,inactive
SET (SET nuclear proto-oncogene),3,-0.857,inactive
S100A3 (S100 calcium binding protein A3),1,-0.0857,inactive
S100A3 (S100 calcium binding protein A3),2,-0.29,inactive
S100A3 (S100 calcium binding protein A3),3,0.579,inactive
ITPRIPL1 (ITPRIP like 1),1,-1.03,inactive
ITPRIPL1 (ITPRIP like 1),2,2.26,inactive
ITPRIPL1 (ITPRIP like 1),3,-0.757,inactive
PUS1 (pseudouridine synthase 1),1,0.765,inactive
PUS1 (pseudouridine synthase 1),2,1.58,inactive
PUS1 (pseudouridine synthase 1),3,0.662,inactive
CDC6 (cell division cycle 6),1,2.47,inactive
CDC6 (cell division cycle 6),2,0.303,inactive
CDC6 (cell division cycle 6),3,3.62,inactive
ZNF726P1 (zinc finger protein 726 pseudogene 1),1,-0.63,inactive
ZNF726P1 (zinc finger protein 726 pseudogene 1),2,0.0993,inactive
ZNF726P1 (zinc finger protein 726 pseudogene 1),3,1.1,inactive
IREB2 (iron responsive element binding protein 2),1,-0.319,inactive
IREB2 (iron responsive element binding protein 2),2,-0.775,inactive
IREB2 (iron responsive element binding protein 2),3,-0.923,inactive
TAFA4 (TAFA chemokine like family member 4),1,-0.655,inactive
TAFA4 (TAFA chemokine like family member 4),2,5.48,active
TAFA4 (TAFA chemokine like family member 4),3,-0.488,inactive
"TUBA5P (tubulin alpha 5, pseudogene)",1,1.92,inactive
"TUBA5P (tubulin alpha 5, pseudogene)",2,-0.376,inactive
"TUBA5P (tubulin alpha 5, pseudogene)",3,-0.0228,inactive
SLC25A18,1,3.4,inactive
SLC25A18,2,0.4,inactive
SLC25A18,3,0.227,inactive
ITGB1 (integrin subunit beta 1),1,-0.866,inactive
ITGB1 (integrin subunit beta 1),2,-1.17,inactive
ITGB1 (integrin subunit beta 1),3,1.63,inactive
"NAA50 (N-alpha-acetyltransferase 50, NatE catalytic subunit)",1,0.34,inactive
"NAA50 (N-alpha-acetyltransferase 50, NatE catalytic subunit)",2,0.681,inactive
"NAA50 (N-alpha-acetyltransferase 50, NatE catalytic subunit)",3,1.91,inactive
SF3B6 (splicing factor 3b subunit 6),1,0.0439,inactive
SF3B6 (splicing factor 3b subunit 6),2,0.0253,inactive
SF3B6 (splicing factor 3b subunit 6),3,0.969,inactive
ADIRF (adipogenesis regulatory factor),1,-0.575,inactive
ADIRF (adipogenesis regulatory factor),2,1.66,inactive
ADIRF (adipogenesis regulatory factor),3,-0.239,inactive
FEZF2 (FEZ family zinc finger 2),1,0.218,inactive
FEZF2 (FEZ family zinc finger 2),2,-1.2,inactive
FEZF2 (FEZ family zinc finger 2),3,-1.16,inactive
PRSS1 (serine protease 1),1,-0.45,inactive
PRSS1 (serine protease 1),2,-0.686,inactive
PRSS1 (serine protease 1),3,-0.758,inactive
HSF2 (heat shock transcription factor 2),1,7.98,active
HSF2 (heat shock transcription factor 2),2,2.8,inactive
HSF2 (heat shock transcription factor 2),3,-0.982,inactive
ULK3 (unc-51 like kinase 3),1,3.49,inactive
ULK3 (unc-51 like kinase 3),2,-1.49,inactive
ULK3 (unc-51 like kinase 3),3,0.825,inactive
ILRUN,1,0.416,inactive
ILRUN,2,1.12,inactive
ILRUN,3,-0.552,inactive

Laid out differently: results already given.
P2RY1 (purinergic receptor P2Y1) #3 → G2 robust z-score = 1.19; Outcome = inactive
ATP6V1E1 (ATPase H+ transporting V1 subunit E1) #1 → G2 robust z-score = -0.347; Outcome = inactive
ATP6V1E1 (ATPase H+ transporting V1 subunit E1) #2 → G2 robust z-score = 0.616; Outcome = inactive
ATP6V1E1 (ATPase H+ transporting V1 subunit E1) #3 → G2 robust z-score = -0.503; Outcome = inactive
NDFIP2 (Nedd4 family interacting protein 2) #1 → G2 robust z-score = 1.49; Outcome = inactive
NDFIP2 (Nedd4 family interacting protein 2) #2 → G2 robust z-score = 0.379; Outcome = inactive
NDFIP2 (Nedd4 family interacting protein 2) #3 → G2 robust z-score = -0.379; Outcome = inactive
ZNF12 (zinc finger protein 12) #1 → G2 robust z-score = -0.55; Outcome = inactive
ZNF12 (zinc finger protein 12) #2 → G2 robust z-score = -1.09; Outcome = inactive
ZNF12 (zinc finger protein 12) #3 → G2 robust z-score = 1.99; Outcome = inactive
